In the supplement of paper PMC10849652:
The other results are listed elsewhere or left out.

The chains behind the UniProt entries cited, without tags or fusion partners. Where a name states a change or a piece, a line headed by the entry shows the natural chain unless it says otherwise.
UniProt P30154, whole entry, looked up: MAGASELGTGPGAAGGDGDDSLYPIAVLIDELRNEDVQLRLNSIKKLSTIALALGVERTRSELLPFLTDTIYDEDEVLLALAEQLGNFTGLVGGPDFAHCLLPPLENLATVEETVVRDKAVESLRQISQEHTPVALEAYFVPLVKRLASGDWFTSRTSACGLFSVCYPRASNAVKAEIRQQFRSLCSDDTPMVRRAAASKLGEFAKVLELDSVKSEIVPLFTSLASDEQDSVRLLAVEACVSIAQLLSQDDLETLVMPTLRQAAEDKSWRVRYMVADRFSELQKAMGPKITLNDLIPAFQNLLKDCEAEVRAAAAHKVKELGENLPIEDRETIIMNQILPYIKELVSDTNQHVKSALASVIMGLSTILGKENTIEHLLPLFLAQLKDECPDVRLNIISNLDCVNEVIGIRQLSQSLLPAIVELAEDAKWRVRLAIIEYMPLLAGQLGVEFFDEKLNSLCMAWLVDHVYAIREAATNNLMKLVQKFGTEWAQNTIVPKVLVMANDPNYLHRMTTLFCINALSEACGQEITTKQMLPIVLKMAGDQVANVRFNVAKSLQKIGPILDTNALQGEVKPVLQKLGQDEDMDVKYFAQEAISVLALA
UniProt Q96C90: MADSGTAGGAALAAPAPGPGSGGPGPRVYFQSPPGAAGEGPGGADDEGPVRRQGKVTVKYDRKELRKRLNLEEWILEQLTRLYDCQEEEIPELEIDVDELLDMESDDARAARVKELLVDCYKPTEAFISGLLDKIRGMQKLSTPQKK
UniProt P42785: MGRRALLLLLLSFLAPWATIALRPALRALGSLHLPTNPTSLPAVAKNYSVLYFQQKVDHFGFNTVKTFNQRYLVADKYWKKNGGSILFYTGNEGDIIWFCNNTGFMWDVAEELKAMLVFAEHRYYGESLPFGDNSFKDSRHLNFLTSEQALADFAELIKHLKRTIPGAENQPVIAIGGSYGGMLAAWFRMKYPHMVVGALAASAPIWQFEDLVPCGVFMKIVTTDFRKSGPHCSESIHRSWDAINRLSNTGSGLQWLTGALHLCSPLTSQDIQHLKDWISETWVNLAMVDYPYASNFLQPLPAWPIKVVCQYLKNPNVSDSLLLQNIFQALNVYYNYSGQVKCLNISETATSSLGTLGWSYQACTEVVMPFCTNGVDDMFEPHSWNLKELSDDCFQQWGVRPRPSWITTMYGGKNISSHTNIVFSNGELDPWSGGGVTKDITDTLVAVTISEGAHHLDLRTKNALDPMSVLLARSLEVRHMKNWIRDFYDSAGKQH
UniProt Q6NYC8: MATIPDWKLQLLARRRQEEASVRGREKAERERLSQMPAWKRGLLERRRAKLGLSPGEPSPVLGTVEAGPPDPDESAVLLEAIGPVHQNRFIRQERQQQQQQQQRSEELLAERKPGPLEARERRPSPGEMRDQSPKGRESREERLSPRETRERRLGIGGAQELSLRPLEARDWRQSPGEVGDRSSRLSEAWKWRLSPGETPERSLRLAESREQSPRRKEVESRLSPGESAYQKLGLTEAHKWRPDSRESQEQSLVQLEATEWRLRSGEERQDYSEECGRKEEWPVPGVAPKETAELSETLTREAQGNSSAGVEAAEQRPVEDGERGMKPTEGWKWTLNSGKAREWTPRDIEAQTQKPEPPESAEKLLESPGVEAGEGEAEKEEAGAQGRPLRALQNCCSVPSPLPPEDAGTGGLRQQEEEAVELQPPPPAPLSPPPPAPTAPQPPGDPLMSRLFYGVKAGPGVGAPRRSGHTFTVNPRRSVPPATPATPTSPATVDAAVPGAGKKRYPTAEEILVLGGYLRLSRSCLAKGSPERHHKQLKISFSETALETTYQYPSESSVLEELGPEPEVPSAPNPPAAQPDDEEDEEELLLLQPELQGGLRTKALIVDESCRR
UniProt P32119: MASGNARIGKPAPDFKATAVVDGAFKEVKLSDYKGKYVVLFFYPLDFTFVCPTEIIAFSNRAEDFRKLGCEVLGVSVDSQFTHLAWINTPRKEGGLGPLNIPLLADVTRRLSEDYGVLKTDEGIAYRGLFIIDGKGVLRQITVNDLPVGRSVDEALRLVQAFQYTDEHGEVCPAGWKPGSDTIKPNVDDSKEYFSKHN
UniProt Q9H2H8: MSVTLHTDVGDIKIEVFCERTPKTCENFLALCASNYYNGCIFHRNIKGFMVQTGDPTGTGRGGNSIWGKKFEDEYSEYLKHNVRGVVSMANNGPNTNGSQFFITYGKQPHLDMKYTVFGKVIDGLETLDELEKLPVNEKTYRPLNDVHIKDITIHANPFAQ
UniProt P13861, whole entry, looked up: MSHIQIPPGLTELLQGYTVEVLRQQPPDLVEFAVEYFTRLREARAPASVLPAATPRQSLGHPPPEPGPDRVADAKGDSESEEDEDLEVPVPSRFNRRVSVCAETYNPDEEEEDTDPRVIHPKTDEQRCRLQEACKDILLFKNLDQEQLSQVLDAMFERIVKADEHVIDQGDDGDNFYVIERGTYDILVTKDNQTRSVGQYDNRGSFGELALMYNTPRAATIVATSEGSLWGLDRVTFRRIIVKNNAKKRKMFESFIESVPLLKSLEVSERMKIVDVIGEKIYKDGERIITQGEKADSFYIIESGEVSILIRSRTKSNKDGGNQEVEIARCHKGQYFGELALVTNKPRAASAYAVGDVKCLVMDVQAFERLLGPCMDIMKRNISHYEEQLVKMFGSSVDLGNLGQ
UniProt P05771, whole entry, looked up: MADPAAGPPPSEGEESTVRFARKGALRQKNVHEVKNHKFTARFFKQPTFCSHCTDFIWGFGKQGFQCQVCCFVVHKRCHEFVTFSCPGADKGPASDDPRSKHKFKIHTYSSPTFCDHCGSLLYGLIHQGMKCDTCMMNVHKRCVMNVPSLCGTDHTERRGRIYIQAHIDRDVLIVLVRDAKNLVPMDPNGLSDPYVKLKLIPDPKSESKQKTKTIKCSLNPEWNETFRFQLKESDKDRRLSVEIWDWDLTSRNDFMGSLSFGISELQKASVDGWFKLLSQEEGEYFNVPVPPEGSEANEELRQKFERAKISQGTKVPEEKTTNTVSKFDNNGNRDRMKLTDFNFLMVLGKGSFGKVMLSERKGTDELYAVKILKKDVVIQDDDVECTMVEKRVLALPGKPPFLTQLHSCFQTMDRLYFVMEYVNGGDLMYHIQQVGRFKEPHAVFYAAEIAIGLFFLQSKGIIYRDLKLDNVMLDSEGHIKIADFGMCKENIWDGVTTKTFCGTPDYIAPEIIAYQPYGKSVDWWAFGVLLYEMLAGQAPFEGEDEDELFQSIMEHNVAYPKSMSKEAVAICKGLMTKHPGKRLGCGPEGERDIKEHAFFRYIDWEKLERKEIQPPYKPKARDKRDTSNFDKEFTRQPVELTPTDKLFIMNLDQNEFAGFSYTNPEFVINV
UniProt Q6ZMI0: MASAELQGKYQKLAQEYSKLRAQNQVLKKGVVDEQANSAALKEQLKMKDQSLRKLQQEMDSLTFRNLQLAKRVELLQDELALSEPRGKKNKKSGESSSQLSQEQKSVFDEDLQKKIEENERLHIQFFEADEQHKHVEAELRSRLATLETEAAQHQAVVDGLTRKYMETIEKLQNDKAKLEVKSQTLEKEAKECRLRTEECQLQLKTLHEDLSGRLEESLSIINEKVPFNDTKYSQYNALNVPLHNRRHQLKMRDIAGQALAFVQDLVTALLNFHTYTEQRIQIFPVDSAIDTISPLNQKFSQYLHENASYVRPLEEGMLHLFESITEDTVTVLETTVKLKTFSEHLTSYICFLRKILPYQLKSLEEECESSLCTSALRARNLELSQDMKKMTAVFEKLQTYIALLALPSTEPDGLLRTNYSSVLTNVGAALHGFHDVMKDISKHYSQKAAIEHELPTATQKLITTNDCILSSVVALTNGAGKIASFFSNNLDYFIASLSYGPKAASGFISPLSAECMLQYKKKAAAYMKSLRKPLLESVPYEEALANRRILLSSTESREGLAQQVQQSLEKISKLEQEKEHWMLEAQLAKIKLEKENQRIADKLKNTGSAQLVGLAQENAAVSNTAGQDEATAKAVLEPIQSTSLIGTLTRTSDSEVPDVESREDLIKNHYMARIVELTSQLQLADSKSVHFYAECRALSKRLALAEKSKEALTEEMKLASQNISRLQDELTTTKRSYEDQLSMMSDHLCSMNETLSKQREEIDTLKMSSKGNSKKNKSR
UniProt Q9HCU5: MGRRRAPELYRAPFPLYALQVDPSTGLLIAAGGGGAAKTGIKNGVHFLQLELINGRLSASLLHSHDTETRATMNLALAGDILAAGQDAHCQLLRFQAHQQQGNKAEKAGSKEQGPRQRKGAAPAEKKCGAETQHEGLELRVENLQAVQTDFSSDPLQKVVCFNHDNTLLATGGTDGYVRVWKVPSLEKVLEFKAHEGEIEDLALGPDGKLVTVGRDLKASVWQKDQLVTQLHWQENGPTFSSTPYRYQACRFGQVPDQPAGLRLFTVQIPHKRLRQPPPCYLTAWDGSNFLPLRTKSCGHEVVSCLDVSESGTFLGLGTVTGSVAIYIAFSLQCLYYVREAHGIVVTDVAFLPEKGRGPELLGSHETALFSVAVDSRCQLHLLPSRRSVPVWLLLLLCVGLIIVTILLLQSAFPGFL
UniProt P41743, whole entry, looked up: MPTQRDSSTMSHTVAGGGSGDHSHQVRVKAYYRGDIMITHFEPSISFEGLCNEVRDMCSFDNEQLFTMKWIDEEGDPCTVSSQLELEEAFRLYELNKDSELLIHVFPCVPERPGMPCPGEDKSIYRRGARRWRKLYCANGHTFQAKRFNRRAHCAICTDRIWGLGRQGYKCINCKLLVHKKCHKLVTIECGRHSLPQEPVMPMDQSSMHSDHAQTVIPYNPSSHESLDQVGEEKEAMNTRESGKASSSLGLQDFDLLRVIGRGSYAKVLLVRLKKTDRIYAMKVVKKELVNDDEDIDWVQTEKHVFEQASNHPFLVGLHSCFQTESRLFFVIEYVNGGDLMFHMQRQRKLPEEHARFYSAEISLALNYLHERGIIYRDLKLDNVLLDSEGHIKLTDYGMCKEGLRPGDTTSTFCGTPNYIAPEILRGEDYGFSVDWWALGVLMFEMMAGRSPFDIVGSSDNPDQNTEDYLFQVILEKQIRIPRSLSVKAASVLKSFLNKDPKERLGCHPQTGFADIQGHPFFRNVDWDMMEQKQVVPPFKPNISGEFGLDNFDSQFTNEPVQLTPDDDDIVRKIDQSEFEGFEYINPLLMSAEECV
UniProt Q6PFW1: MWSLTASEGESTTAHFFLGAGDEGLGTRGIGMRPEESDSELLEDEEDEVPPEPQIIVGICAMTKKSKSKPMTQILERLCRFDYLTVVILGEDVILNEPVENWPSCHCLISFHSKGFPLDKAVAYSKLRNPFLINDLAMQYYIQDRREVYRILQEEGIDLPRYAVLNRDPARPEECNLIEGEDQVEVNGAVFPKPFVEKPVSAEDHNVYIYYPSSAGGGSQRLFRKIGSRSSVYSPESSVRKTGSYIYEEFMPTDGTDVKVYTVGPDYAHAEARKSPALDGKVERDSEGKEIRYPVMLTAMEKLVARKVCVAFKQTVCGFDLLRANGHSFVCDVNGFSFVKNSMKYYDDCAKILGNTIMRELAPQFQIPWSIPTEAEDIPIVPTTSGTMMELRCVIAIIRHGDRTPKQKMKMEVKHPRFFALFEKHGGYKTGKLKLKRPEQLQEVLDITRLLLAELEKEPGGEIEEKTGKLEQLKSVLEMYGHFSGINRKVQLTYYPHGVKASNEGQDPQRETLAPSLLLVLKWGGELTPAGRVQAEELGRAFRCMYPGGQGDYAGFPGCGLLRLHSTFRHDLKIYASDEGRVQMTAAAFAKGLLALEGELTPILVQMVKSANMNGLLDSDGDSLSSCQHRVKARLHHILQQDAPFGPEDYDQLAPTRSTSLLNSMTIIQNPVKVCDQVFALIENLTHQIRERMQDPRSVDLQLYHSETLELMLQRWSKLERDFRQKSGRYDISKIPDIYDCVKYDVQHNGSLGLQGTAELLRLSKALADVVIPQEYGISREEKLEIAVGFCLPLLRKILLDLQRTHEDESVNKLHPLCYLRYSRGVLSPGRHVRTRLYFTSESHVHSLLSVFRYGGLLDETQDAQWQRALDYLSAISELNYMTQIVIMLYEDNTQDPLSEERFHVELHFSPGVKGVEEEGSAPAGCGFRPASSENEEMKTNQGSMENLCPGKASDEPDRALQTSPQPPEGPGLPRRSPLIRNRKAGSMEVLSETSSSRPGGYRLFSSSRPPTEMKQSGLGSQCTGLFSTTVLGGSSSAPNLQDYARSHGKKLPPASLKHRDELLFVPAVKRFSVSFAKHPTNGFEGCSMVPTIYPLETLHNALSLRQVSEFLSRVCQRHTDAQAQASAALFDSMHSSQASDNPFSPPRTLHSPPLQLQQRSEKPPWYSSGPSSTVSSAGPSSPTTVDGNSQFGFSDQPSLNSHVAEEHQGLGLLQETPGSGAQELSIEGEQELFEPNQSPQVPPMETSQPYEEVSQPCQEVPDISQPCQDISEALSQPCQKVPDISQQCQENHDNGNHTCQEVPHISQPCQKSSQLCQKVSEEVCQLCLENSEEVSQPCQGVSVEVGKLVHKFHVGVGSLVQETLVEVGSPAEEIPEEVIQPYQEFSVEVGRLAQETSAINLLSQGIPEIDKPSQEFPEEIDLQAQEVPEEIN

Columns and labels:
Assay in all cases: log2 fold change, soluble protein after heating vs DMSO (PISA); higher = thermal stabilisation; K562 lysate, 10 uM; active = over 0.2 and 3.5 SD of the protein, either way, in both replicates (recomputed)
lapatinib = compound: CS(=O)(=O)CCNCc1ccc(-c2ccc3ncnc(Nc4ccc(OCc5cccc(F)c5)c(Cl)c4)c3c2)o1 [lapatinib]
In short: (§1)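 Following dounce homogenisation of K562 pellets in PBS pH 7.4 with 1 mM MgCl2, crude extract at 1 mg/mL protein was incubated for 30 min with 10 μM compound. Aliquots were then heated for 3 min over 48°C-58°C and pooled, NP-40 was added to 0.5% at 4°C, and soluble protein was recovered as the supernatant at 21,000xg for 90 min. Channel-sum-equalised TMTpro 16plex LC-MS/MS quantified this protein. Each value, from duplicates, is a log-two fold change in thermal stability relative to solvent controls.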

pictilisib = compound: CS(=O)(=O)N1CCN(Cc2cc3nc(-c4cccc5[nH]ncc45)nc(N4CCOCC4)c3s2)CC1 [pictilisib]
In short: as §1

crizotinib = compound: C[C@@H](Oc1cc(-c2cnn(C3CCNCC3)c2)cnc1N)c1c(Cl)ccc(F)c1Cl [crizotinib]
In short: as §1

[1] = compound: C[C@H](C1=CC=C(C=C1)C(=O)NC2=C3C=CNC3=NC=C2)N
In short: as §1

duvelisib = compound: C[C@H](Nc1ncnc2nc[nH]c12)c1cc2cccc(Cl)c2c(=O)n1-c1ccccc1 [duvelisib]
In short: as §1

gandotinib = compound: Cc1cc(Nc2cc(CN3CCOCC3)c3nc(C)c(Cc4ccc(Cl)cc4F)n3n2)n[nH]1 [gandotinib]
In short: as §1

tozasertib = compound: Cc1cc(Nc2cc(N3CCN(C)CC3)nc(Sc3ccc(NC(=O)C4CC4)cc3)n2)n[nH]1 [tozasertib]
In short: as §1

doramapimod = compound: Cc1ccc(-n2nc(C(C)(C)C)cc2NC(=O)Nc2ccc(OCCN3CCOCC3)c3ccccc23)cc1 [doramapimod]
In short: as §1

bafetinib = compound: Cc1ccc(NC(=O)c2ccc(CN3CC[C@H](N(C)C)C3)c(C(F)(F)F)c2)cc1Nc1nccc(-c2cncnc2)n1 [bafetinib]
In short: as §1

[2] = compound: Cc1cccc(CC(=O)N2CCc3c2ccc(-c2cn(C)c4ncnc(N)c24)c3F)n1
In short: as §1

nilotinib = compound: Cc1cn(-c2cc(NC(=O)c3ccc(C)c(Nc4nccc(-c5cccnc5)n4)c3)cc(C(F)(F)F)c2)cn1 [nilotinib]
In short: as §1

[3] = compound: Cc1nc(Nc2n[nH]c3c2CN(C(=O)N[C@H](CN(C)C)c2ccccc2)C3(C)C)c2sccc2n1
In short: as §1

dasatinib = compound: Cc1nc(Nc2ncc(C(=O)Nc3c(C)cccc3Cl)s2)cc(N2CCN(CCO)CC2)n1 [dasatinib]
In short: as §1

[4] = compound: Cc1ncc(-c2ccnc(Nc3ccc(S(C)(=O)=O)cc3)n2)n1C(C)C
In short: as §1

[5] = compound: Cn1cc(-c2ccc3c(c2)CCN3C(=O)Cc2cccc(C(F)(F)F)c2)c2c(N)ncnc21
In short: as §1

quisinostat = compound: Cn1cc(CNCC2CCN(c3ncc(C(=O)NO)cn3)CC2)c2ccccc21 [quisinostat]
In short: as §1

tipifarnib = compound: Cn1cncc1[C@@](N)(c1ccc(Cl)cc1)c1ccc2c(c1)c(-c1cccc(Cl)c1)cc(=O)n2C [tipifarnib]
In short: as §1

[6] = compound: NC(=O)Nc1cc(-c2cccc(F)c2)sc1C(=O)N[C@H]1CCCNC1
In short: as §1

[7] = compound: NC(=O)c1cnc(N[C@@H]2CCCC[C@@H]2N)nc1Nc1cccc(-n2nccn2)c1
In short: as §1

[8] = compound: NC1(c2ccc(-c3nc4ccn5c(=O)[nH]nc5c4cc3-c3ccccc3)cc2)CCC1
In short: as §1

Measured: log2 fold change

PPP2R1B isoform 2 (UniProt P30154)
inactive: lapatinib -0.012 | pictilisib 0.002 | crizotinib -0.053 | [1] 0.024 | duvelisib -0.008 | gandotinib -0.097 | tozasertib 0.015 | doramapimod -0.019 | bafetinib -0.005 | [2] -0.022 | nilotinib 0.015 | [3] 0.005 | dasatinib -0.005 | [4] -0.022 | [5] 0.038 | quisinostat -0.033 | tipifarnib 0.013 | [6] 0.041 | [7] 0.069 | [8] 0.034

PPP1R14B (UniProt Q96C90)
inactive: lapatinib 0.007 | pictilisib -0.047 | crizotinib -0.015 | [1] -0.045 | duvelisib 0.05 | gandotinib 0.059 | tozasertib 0.053 | doramapimod 0.022 | bafetinib -0.065 | [2] -0.07 | nilotinib 0.009 | [3] -0.087 | dasatinib -0.016 | [4] -0.029 | [5] -0.04 | quisinostat -0.021 | tipifarnib 0.096 | [6] 0.024 | [7] -0.018 | [8] 0.024

PRCP (UniProt P42785)
inactive: lapatinib 0.012 | pictilisib -0.008 | crizotinib -0.089 | [1] -0.001 | duvelisib 0.014 | gandotinib 0.057 | tozasertib 0.024 | doramapimod -0.049 | bafetinib -0.039 | [2] -0.011 | nilotinib 0.013 | [3] 0 | dasatinib -0.023 | [4] 0.055 | [5] 0.016 | quisinostat 0.007 | tipifarnib 0.04 | [6] 0.012 | [7] 0.005 | [8] 0.077

PPP1R18 (UniProt Q6NYC8)
inactive: lapatinib -0.021 | pictilisib -0.008 | crizotinib 0.03 | [1] 0.008 | duvelisib -0.048 | gandotinib 0.025 | tozasertib -0.014 | doramapimod 0.005 | bafetinib 0.006 | [2] -0.002 | nilotinib -0.004 | [3] 0.017 | dasatinib 0.029 | [4] 0.004 | [5] -0.004 | quisinostat -0.027 | tipifarnib -0.02 | [6] -0.027 | [7] 0.027 | [8] 0.013

PRDX2 (UniProt P32119)
inactive: lapatinib 0.005 | pictilisib 0.031 | crizotinib 0.031 | [1] -0.095 | duvelisib -0.019 | gandotinib 0.061 | tozasertib 0.018 | doramapimod 0 | bafetinib 0.038 | [2] 0.043 | nilotinib -0.011 | [3] 0.006 | dasatinib 0.051 | [4] -0.034 | [5] -0.011 | quisinostat -0.001 | tipifarnib -0.009 | [6] -0.012 | [7] -0.01 | [8] 0.008

PRC1 (UniProt O43663)
inactive: lapatinib -0.014 | pictilisib -0.007 | crizotinib -0.109 | [1] 0.023 | duvelisib 0.059 | gandotinib -0.003 | tozasertib 0.017 | doramapimod 0.004 | bafetinib -0.079 | [2] 0.025 | nilotinib 0.013 | [3] -0.008 | dasatinib -0.012 | [4] -0.007 | [5] 0.05 | quisinostat -0.035 | tipifarnib -0.011 | [6] 0.009 | [7] -0.002 | [8] -0.044

PPIL3 (UniProt Q9H2H8)
inactive: lapatinib 0.05 | pictilisib -0.062 | crizotinib 0.079 | [1] -0.115 | duvelisib -0.009 | gandotinib 0.084 | tozasertib -0.019 | doramapimod 0 | bafetinib -0.037 | [2] 0.08 | nilotinib 0.121 | [3] 0.023 | dasatinib -0.049 | [4] 0.176 | [5] -0.032 | quisinostat 0.017 | tipifarnib -0.028 | [6] -0.025 | [7] -0.054 | [8] -0.051

PRKAR2A (UniProt P13861)
active: gandotinib -0.232
inactive: lapatinib 0.036 | pictilisib -0.094 | crizotinib 0.013 | [1] 0.006 | duvelisib -0.025 | tozasertib 0.015 | doramapimod 0.036 | bafetinib -0.026 | [2] 0.031 | nilotinib -0.036 | [3] -0.051 | dasatinib -0.065 | [4] -0.016 | [5] 0.017 | quisinostat 0.02 | tipifarnib 0.025 | [6] -0.198 | [7] -0.037 | [8] -0.011

PRKCB isoform 2 (UniProt P05771)
active: [3] 0.256 | [6] -0.416
inactive: lapatinib -0.001 | pictilisib 0.003 | crizotinib 0.036 | [1] -0.012 | duvelisib 0.033 | gandotinib -0.122 | tozasertib 0.035 | doramapimod 0.009 | bafetinib -0.01 | [2] 0.021 | nilotinib -0.014 | dasatinib -0.06 | [4] -0.093 | [5] -0.007 | quisinostat 0.017 | tipifarnib -0.038 | [7] 0.181 | [8] -0.037

PPP1CC isoform 2 (UniProt P36873)
inactive: lapatinib 0.005 | pictilisib -0.007 | crizotinib 0.017 | [1] 0.079 | duvelisib -0.01 | gandotinib -0.072 | tozasertib -0.003 | doramapimod 0.028 | bafetinib 0.061 | [2] 0.002 | nilotinib 0.017 | [3] 0.006 | dasatinib -0.004 | [4] -0.007 | [5] 0.009 | quisinostat 0.057 | tipifarnib -0.035 | [6] -0.007 | [7] -0.004 | [8] 0

2 neighbouring records already listed, quoted:
PRKCB isoform 2 (UniProt P05771)
active: [3] 0.256 | [6] -0.416
inactive: lapatinib -0.001 | pictilisib 0.003 | crizotinib 0.036 | [1] -0.012 | duvelisib 0.033 | gandotinib -0.122 | tozasertib 0.035 | doramapimod 0.009 | bafetinib -0.01 | [2] 0.021 | nilotinib -0.014 | dasatinib -0.06 | [4] -0.093 | [5] -0.007 | quisinostat 0.017 | tipifarnib -0.038 | [7] 0.181 | [8] -0.037

PPP1CC isoform 2 (UniProt P36873)
inactive: lapatinib 0.005 | pictilisib -0.007 | crizotinib 0.017 | [1] 0.079 | duvelisib -0.01 | gandotinib -0.072 | tozasertib -0.003 | doramapimod 0.028 | bafetinib 0.061 | [2] 0.002 | nilotinib 0.017 | [3] 0.006 | dasatinib -0.004 | [4] -0.007 | [5] 0.009 | quisinostat 0.057 | tipifarnib -0.035 | [6] -0.007 | [7] -0.004 | [8] 0

Following part:

PPP1R21 (UniProt Q6ZMI0)
inactive: lapatinib -0.012 | pictilisib -0.037 | crizotinib -0.029 | [1] 0.028 | duvelisib 0.017 | gandotinib -0.074 | tozasertib -0.081 | doramapimod 0.054 | bafetinib -0.091 | [2] 0.061 | nilotinib 0.032 | [3] 0.005 | dasatinib -0.06 | [4] -0.022 | [5] 0.002 | quisinostat -0.104 | tipifarnib 0.017 | [6] 0.054 | [7] 0.008 | [8] 0.052

PREB (UniProt Q9HCU5)
inactive: lapatinib -0.038 | pictilisib -0.045 | crizotinib -0.009 | [1] -0.057 | duvelisib 0.049 | gandotinib 0.035 | tozasertib -0.001 | doramapimod 0.031 | bafetinib -0.02 | [2] -0.001 | nilotinib -0.013 | [3] 0.078 | dasatinib 0.005 | [4] 0.062 | [5] -0.012 | quisinostat -0.038 | tipifarnib 0.035 | [6] 0.04 | [7] -0.008 | [8] -0.026

PRKCI (UniProt P41743)
inactive: lapatinib -0.015 | pictilisib -0.013 | crizotinib -0.002 | [1] 0.016 | duvelisib -0.005 | gandotinib 0.017 | tozasertib -0.042 | doramapimod 0.021 | bafetinib -0.006 | [2] -0.035 | nilotinib 0 | [3] 0.004 | dasatinib -0.091 | [4] 0 | [5] 0.003 | quisinostat 0.042 | tipifarnib -0.016 | [6] -0.011 | [7] 0.001 | [8] 0.001

PPIP5K1 (UniProt Q6PFW1)
inactive: lapatinib 0.003 | pictilisib -0.038 | crizotinib -0.01 | [1] 0.04 | duvelisib 0.091 | gandotinib -0.053 | tozasertib -0.013 | doramapimod 0.009 | bafetinib -0.08 | [2] 0.067 | nilotinib -0.072 | [3] -0.005 | dasatinib -0.001 | [4] -0.053 | [5] 0.067 | quisinostat -0.031 | tipifarnib 0.008 | [6] 0.094 | [7] 0.057 | [8] 0.024

PRIM2 (UniProt P49643)
inactive: lapatinib 0.045 | pictilisib -0.025 | crizotinib -0.017 | [1] 0.007 | duvelisib -0.002 | gandotinib -0.056 | tozasertib -0.04 | doramapimod 0.028 | bafetinib -0.1 | [2] 0.004 | nilotinib 0.052 | [3] 0.007 | dasatinib -0.038 | [4] -0.012 | [5] 0.02 | quisinostat -0.027 | tipifarnib -0.037 | [6] 0.018 | [7] -0.001 | [8] -0.021

PRMT8 (UniProt Q9NR22)
active: [1] -0.256
inactive: lapatinib -0.011 | pictilisib 0.004 | crizotinib -0.037 | duvelisib 0.012 | gandotinib 0.071 | tozasertib 0.008 | doramapimod -0.001 | bafetinib -0.112 | [2] 0.168 | nilotinib 0.007 | [3] -0.021 | dasatinib -0.039 | [4] -0.01 | [5] -0.023 | quisinostat -0.057 | tipifarnib 0.036 | [6] 0.034 | [7] -0.023 | [8] -0.056
